Results are given in words; binding and its absence hold for the method and conditions named. In cells and extracts the contact can be indirect. A result given as binding can be weak or reduced; the word gives no strength.
Biological target: HA-tagged Fcα/μR lacking the immunoglobulin-like domain (UniProt Q2TB54)
Assay: co-IP; Ba/F3 transfectants lysed in 1% digitonin, 0.12% Triton X-100, 150 mM NaCl, 20 mM triethanolamine; IP anti-HA and blot anti-Flag by the legend (the methods say IP anti-Flag, blot anti-HA); with or without LPS stimulation

The chains behind the UniProt entries cited, without tags or fusion partners. Where a name states a change or a piece, a line headed by the entry shows the natural chain unless it says otherwise. Residues count along the entry.
UniProt Q2TB54: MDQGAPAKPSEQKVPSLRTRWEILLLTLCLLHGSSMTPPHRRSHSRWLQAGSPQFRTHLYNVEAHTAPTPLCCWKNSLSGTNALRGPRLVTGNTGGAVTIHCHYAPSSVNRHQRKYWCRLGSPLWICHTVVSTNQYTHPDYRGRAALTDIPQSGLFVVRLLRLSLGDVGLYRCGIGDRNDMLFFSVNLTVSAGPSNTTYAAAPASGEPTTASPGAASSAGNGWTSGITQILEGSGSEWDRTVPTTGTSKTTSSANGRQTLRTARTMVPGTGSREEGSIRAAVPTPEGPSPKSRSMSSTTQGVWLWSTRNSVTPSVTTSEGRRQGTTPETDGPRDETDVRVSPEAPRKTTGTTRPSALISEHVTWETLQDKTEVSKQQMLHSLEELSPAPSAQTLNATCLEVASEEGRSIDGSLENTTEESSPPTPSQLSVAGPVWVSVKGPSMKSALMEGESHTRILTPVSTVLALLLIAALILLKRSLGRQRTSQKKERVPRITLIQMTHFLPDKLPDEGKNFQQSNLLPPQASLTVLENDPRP
UniProt Q9QUK6, residues 26-835: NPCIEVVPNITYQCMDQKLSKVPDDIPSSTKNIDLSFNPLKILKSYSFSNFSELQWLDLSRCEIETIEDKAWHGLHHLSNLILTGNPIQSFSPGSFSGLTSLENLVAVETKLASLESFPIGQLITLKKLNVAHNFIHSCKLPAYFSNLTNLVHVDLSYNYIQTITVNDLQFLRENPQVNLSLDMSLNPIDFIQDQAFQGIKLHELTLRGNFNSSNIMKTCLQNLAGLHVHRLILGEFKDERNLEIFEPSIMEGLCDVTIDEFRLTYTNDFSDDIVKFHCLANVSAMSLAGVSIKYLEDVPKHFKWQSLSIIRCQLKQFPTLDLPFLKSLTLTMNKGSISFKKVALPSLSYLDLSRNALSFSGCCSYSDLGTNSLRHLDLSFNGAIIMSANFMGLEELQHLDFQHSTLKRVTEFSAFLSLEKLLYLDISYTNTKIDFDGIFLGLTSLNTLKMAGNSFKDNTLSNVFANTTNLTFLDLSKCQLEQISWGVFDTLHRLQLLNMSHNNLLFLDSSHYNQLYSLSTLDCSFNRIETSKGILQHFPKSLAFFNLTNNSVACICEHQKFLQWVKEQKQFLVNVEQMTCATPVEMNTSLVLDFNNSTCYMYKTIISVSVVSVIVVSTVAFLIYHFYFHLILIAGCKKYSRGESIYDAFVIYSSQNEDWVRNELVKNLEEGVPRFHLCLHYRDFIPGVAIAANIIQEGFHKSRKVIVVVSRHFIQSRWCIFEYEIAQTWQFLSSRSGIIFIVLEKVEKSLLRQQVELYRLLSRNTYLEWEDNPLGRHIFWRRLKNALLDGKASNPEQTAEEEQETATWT

Substance: Flag-tagged TLR4 (from UniProt Q9QUK6 26-835) (receptor)
- binding: binds

From publication PMC4858745
